# Numbering of substitutions follows the chain as printed. Results are given in words; binding and its absence hold for the method and conditions named. For part of these data: In cells and extracts the contact can be indirect. Some results given as binding are weak or reduced against the parent protein; the word gives no strength. For part of these data: Where a sequence is shown, tags or fusion partners need not be part of it.
# T1: NDP52 (human (endogenous in HeLa)), Q13137
# T1 chain: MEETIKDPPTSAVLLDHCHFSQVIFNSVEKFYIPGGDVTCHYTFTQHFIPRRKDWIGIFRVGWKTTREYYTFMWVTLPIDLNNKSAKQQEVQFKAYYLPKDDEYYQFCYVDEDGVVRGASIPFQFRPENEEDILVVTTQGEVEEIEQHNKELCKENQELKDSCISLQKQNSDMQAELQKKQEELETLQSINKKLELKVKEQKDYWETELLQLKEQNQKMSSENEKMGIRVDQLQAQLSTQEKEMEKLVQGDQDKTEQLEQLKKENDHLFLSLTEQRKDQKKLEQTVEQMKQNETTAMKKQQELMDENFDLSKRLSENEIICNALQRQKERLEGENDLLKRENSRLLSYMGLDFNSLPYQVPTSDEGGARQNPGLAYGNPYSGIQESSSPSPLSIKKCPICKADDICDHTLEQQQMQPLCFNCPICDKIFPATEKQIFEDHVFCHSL
# T2: Flag-human NDP52 WT (human), Q13137
# T2 chain: T1 chain
# T3: GST-NDP52 wild-type (human), Q13137
# T3 chain: T1 chain
# T4: His-Flag-NDP52 (human), Q13137
# T4 chain: T1 chain
# B1: NDP52, Q13137 1-446 (protein)
# chain: T1 chain
# B2: Flag-human NDP52 WT, Q13137 1-446 (protein)
# chain: T1 chain
# B3: GST-NDP52 wild-type, Q13137 1-446 (protein)
# chain: T1 chain
# B4: His-Flag-NDP52, Q13137 1-446 (protein)
# chain: T1 chain
# B5: GST-NDP52 wild-type (protein, UniProt Q13137 1-446)
# chain: T1 chain
# B6: His-Flag-NDP52 quadruple cysteine mutant (C18, C153, C163, C321 to Ala) (protein, UniProt Q13137 1-446)
# chain: T1 chain with C18A, C153A, C163A, C321A
# B7: His-Flag-NDP52 (protein, UniProt Q13137 1-446)
# chain: T1 chain
# How the values were obtained:
# [1] = target: T1, NDP52 (human (endogenous in HeLa)), …; assay: cross-linking; disulphide-linked conjugates (DLC) formed in cells (HeLa, HeLa PentaKO with NDP52 transgenes, MEFs) treated with H2O2, PR-619, TrxR inhibitors, AO or RO or G-TPP with or without bafilomycin A1; lysis in RIPA with 50 mM N-ethylmaleimide; whole lysates or mitochondrial fractions; SDS-PAGE without (non-reduced) or with 2.5% β-mercaptoethanol, immunoblot; conditions: remark: other sources report otherwise
# [2] = target: T2, Flag-human NDP52 WT (human), Q13137; assay: as above; conditions: remark: other sources report otherwise
# [3] = target: T3, GST-NDP52 wild-type (human), Q13137; assay: cross-linking; recombinant NDP52 in 50 mM Tris, 150 mM NaCl pH 7.4 exposed to H2O2 (5 min); SDS-PAGE, immunoblot or CBB staining; disulphide-linked conjugates (DLC); both purified; conditions: remark: other sources report otherwise
# [4] = target: T4, His-Flag-NDP52 (human), Q13137; assay: cross-linking; disulphide-linked conjugates (DLC) formed in cells (HeLa, HeLa PentaKO with NDP52 transgenes, MEFs) treated with H2O2, PR-619, TrxR inhibitors, AO or RO or G-TPP with or without bafilomycin A1; lysis in RIPA with 50 mM N-ethylmaleimide; whole lysates or mitochondrial fractions; SDS-PAGE without (non-reduced) or with 2.5% β-mercaptoethanol, immunoblot; conditions: remark: other sources report otherwise
# [5] = target: T4, His-Flag-NDP52 (human), Q13137; assay: native gel or EMSA; blue native PAGE of lysates (30 μg; 20 mM Bis-Tris pH 7.2, 40 mM NaCl, 10% glycerol, 0.5% NP-40) of HeLa PentaKO cells stably expressing NDP52 WT or Mut, immunoblot; conditions: remark: other sources report otherwise
# [6] = target: GST-NDP52 wild-type (human) (UniProt Q13137); assay: cross-linking; recombinant NDP52 in 50 mM Tris, 150 mM NaCl pH 7.4 exposed to AO; SDS-PAGE, immunoblot; disulphide-linked conjugates (DLC); both purified
# [7] = target: His-Flag-NDP52 quadruple cysteine mutant (C18, C153, C163, C321 to Ala) (human) (UniProt Q13137); assay: cross-linking; disulphide-linked conjugates (DLC) formed in cells (HeLa, HeLa PentaKO with NDP52 transgenes, MEFs) treated with H2O2, PR-619, TrxR inhibitors, AO or RO or G-TPP with or without bafilomycin A1; lysis in RIPA with 50 mM N-ethylmaleimide; whole lysates or mitochondrial fractions; SDS-PAGE without (non-reduced) or with 2.5% β-mercaptoethanol, immunoblot
# His-Flag-NDP52 (human) [8] = target: His-Flag-NDP52 (human) (UniProt Q13137); assay: condition: only cells pre-treated with 20 μM S3QEL for 30 min; cross-linking; DLC in HeLa PentaKO + NDP52 WT cells pre-treated with 20 μM S3QEL for 30 min, then AO for 2 h; immunoblot for NDP52 in non-reducing conditions
# His-Flag-NDP52 (human) [9] = target: His-Flag-NDP52 (human) (UniProt Q13137); assay: condition: only cells pre-treated with 500 nM MitoQ for 22 h; cross-linking; DLC in HeLa PentaKO + NDP52 WT cells pre-treated with 500 nM MitoQ for 22 h, then 4 μM/10 μM AO for 2 h with or without 400 nM Baf; immunoblot for NDP52
binder,measurement,setting,value
B1,binding,[1],binds
B2,binding,[2],binds
B3,binding,[3],binds
B4,binding,[4],binds
same,binding,[5],binds
B5,binding,[6],no binding (condition: exposed to AO instead of H2O2)
B6,binding,[7],no binding
B7,binding,His-Flag-NDP52 (human) [8],no binding
same,binding,His-Flag-NDP52 (human) [9],no binding

# Reference: paper PMC9975939
